This note sets out measurements from publication doi:10.1101/2023.03.06.531428.

The chains behind the UniProt entries cited, without tags or fusion partners. Where a name states a change or a piece, a line headed by the entry shows the natural chain unless it says otherwise. Residues count along the entry.
UniProt P01033, residues 24-207: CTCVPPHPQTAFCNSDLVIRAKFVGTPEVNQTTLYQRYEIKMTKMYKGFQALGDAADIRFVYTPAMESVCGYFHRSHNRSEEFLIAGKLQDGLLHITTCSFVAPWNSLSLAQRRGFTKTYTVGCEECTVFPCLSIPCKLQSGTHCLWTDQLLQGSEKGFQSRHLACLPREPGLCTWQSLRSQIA
UniProt Q9UKP4: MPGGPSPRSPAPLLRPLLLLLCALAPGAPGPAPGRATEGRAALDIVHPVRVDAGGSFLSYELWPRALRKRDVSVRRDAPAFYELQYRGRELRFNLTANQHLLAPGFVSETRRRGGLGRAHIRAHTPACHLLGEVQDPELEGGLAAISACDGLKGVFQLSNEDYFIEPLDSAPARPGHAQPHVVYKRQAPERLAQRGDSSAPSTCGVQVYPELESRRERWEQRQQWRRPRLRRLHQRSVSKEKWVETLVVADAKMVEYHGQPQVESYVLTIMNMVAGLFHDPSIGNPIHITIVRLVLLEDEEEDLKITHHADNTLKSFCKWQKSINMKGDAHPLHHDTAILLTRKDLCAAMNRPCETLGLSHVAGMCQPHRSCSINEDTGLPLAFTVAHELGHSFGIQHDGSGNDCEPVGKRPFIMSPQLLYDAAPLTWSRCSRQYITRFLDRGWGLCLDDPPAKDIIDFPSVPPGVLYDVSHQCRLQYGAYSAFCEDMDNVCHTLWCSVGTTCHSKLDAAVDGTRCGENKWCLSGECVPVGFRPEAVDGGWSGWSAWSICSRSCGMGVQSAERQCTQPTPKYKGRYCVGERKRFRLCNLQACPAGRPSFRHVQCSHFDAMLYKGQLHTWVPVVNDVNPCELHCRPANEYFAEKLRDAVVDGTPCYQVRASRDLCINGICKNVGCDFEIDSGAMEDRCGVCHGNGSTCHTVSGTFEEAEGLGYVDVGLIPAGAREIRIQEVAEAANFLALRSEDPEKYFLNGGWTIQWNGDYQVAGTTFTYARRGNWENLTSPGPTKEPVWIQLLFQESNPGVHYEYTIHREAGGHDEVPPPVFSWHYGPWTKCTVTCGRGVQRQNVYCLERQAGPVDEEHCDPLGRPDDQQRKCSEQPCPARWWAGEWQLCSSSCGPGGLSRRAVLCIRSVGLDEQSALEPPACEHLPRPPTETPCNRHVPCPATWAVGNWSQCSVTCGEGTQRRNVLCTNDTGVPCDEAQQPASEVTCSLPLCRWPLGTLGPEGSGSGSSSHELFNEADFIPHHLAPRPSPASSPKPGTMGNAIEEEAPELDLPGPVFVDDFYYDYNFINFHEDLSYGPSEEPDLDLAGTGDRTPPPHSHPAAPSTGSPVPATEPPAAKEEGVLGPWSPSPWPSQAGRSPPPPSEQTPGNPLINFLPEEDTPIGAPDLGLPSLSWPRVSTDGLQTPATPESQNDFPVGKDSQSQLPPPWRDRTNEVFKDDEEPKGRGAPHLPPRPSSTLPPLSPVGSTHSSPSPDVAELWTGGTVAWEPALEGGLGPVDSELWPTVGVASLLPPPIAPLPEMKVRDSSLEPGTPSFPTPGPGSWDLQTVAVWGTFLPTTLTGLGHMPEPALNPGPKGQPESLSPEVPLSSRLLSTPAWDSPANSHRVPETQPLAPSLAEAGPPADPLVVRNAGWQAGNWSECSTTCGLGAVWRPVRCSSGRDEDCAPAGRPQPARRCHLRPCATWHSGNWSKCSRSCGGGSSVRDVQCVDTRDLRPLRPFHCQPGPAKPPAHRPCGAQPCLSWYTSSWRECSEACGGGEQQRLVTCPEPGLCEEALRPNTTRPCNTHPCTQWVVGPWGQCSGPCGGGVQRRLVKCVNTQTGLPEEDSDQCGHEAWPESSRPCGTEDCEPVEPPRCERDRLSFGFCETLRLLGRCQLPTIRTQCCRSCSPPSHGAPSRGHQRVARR

For assay [1], the target named is TIMP-1-HA (human) (UniProt P01033). The experiment in a line: AlphaScreen or HTRF. On the technique in general: Bead proximity is the source of the signal in Alpha formats.
The target is the same in assay [2]. The experiment in a line: co-IP.
Assay [3] has the same target. The experiment in a line: co-IP. This is another data set of the same source.

No constants are given. Whether binding was seen depends on the method and setting. Binding can be weak; no strength is given. For part of these data: Binding seen in cells or lysates may run through a third protein.

Turning to “ADAMTS-7-FLAG (from UniProt Q9UKP4) (enzyme)”, the binding entry in assay [1] is on record as “binds”.
On to “full-length ADAMTS-7 containing a C-terminal V5-tag (ADAMTS7-V5) (from UniProt Q9UKP4) (enzyme)”, for which the binding entry in assay [2] and in assay [3] was “binds” throughout.
